# Test results: PubChem BioAssay AID2685 (National Center for Advancing Translational Sciences (NCATS), 2010)
# This is one part of the list. The main result of the screen is listed elsewhere. These columns were measured beside it and carry no call. The list favours compounds with an active or inconclusive main result. The note in brackets gives the kind of curve behind each potency; many fits are weak.
# Assay: qHTS Assay for Lipid Storage Modulators in Drosophila S3 Cells;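 on cell number change: cells counted by Cell Tracker Red CMTPX staining in the red channel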
# Settings: BODIPY lipid droplet fluorescence, 18-24 h; for cell number change: measured here: cell count max response, cells fed with added oleic acid
# Summary of the method: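 Laser-scanning cytometry quantifies lipid droplet accumulation (500–530 nm total intensity; droplet/cell object ratio) in oleic acid-fed (400 uM added) Drosophila S3 cells treated with a concentration series. 20 uM Triacsin C defined 100% inhibition.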
# [1] = measured here: cell number channel AC50, cells fed with added oleic acid
# [2] = measured here: lipid fluorescence (Fed channel) AC50, cells fed with added oleic acid
SMILES,cell number change [%],AC50 [1],AC50 [2]
COCCCNC(=O)CN1C(=O)COc2ccc(S(=O)(=O)N3CCOCC3)cc21,36.4,"517 nM [rising, full curve, poor fit]",–
COc1ccccc1NC(=O)CCN1C(=O)C2CC=CCC2C1=O (centres undefined),-10.4,"146 nM [rising, full curve, poor fit]","29100 nM [rising, single point]"
CC(NS(=O)(=O)c1ccc2c(c1)CC(=O)N2C)c1ccccc1 (centres undefined),23.5,–,–
COc1ccccc1C(=O)N1CCCC(c2nc(-c3cc(OC)c(OC)c(OC)c3)no2)C1 (centres undefined),-51.4,"16400 nM [falling, partial curve]","92 nM [falling, full curve]"
CCOC(=O)N1CCC(Nc2c(NCCCN(C)Cc3ccccc3)c(=O)c2=O)CC1,-0.737,–,–
COc1cc(C2C(C#N)=C(C)NC3=C2C(=O)c2ccccc23)cc(OC)c1OC (centres undefined),55.9,"65.1 nM [rising, full curve]","130 nM [rising, full curve]"
O=C(O)Cc1cccc2ccccc12,-11.6,"1300 nM [falling, single point]","651 nM [falling, single point]"
Cc1ccc(C(=O)N2CCCCC2)cc1S(=O)(=O)N1CCOCC1,-8.17,–,–
Cc1cc(C(=O)N/N=C/c2cccc([N+](=O)[O-])c2O)n[nH]1,-17.7,–,–
CCOC(=O)Cn1nnnc1CN(Cc1cccs1)Cc1cc2cc(C)ccc2[nH]c1=O,40.1,"18400 nM [rising, single point]","3260 nM [rising, single point]"
CCCCNC(=S)N1CCN(C(c2ccccc2)c2ccccc2)CC1,2.61,–,–
COc1ccc(S(=O)(=O)N2CCOCC2)cc1NC(=O)c1sccc1C,-22.3,–,"4.61 nM [falling, full curve, poor fit]"
CCOC(=O)C1CCN(C(c2cc3ccc(C)c(C)c3[nH]c2=O)c2nnnn2C2CCCCC2)CC1 (centres undefined),-13.4,–,"1300 nM [rising, full curve]"
CC(=O)c1c(N2CCN(CCO)CC2)nc(=S)n(-c2ccccc2)c1C,-20.1,"2910 nM [rising, partial curve, poor fit]","25900 nM [falling, single point]"
Cc1c(/C=N\NC(=O)C2(C)CC2(Cl)Cl)cnn1C (centres undefined),-30.4,–,–
Cc1cnc(C(=O)Nc2nccs2)cn1,-20.8,–,–
COC(=O)c1cc(OC)c(OC)cc1NC(=O)CN1CCCCC1,-2.92,–,"6510 nM [rising, single point]"
CCCc1nnc(NC(=O)C(=O)NCCN(CC)CC)s1,-30.6,"14600 nM [falling, single point]","11600 nM [falling, partial curve, poor fit]"
COCCn1c(=NC(=O)CSC(C)=O)sc2cc(F)ccc21,63.6,"29100 nM [rising, single point]",–
C/C(CC(=O)Nc1cccc(C(F)(F)F)c1)=N/NC(=O)C(=O)NCCO,11.4,–,"2060 nM [falling, partial curve]"

SMILES,cell number change [%],AC50 [1],AC50 [2]
CCC(C)Sc1nc2c(cnn2-c2ccc(C)cc2)c(=O)[nH]1 (centres undefined),–,"5170 nM [falling, single point]",–
COc1ccc(C)cc1NC(=O)C(Sc1nnnn1C)c1ccccc1 (centres undefined),-19,–,"92 nM [falling, full curve, poor fit]"
C[C@@]12C(=O)Nc3ccc(Br)cc3C(=O)N1[C@H]1c3cc(Br)ccc3OC[C@@H]1[C@@H]2c1ccccc1,–,–,"326 nM [falling, full curve, poor fit]"
COc1ccc(N(C)S(=O)(=O)c2cccc(C(=O)Nc3ccc(OC)nc3)c2)cc1,–,–,"92 nM [rising, partial curve, poor fit]"
CC1CCCCN1C(=O)CN1CCN(S(=O)(=O)c2ccc(Br)cc2Cl)CC1 (centres undefined),-0.251,–,"1640 nM [falling, partial curve, poor fit]"
CC(Sc1ccc2c(c1)OCCO2)C(=O)Nc1ccc(N2CCOCC2)cc1 (centres undefined),30.2,"4.11 nM [rising, full curve, poor fit]",–
COc1ccc(NS(=O)(=O)c2c(C)[nH]c(=O)[nH]c2=O)c(OC)c1,-65.5,–,–
CCCNC(=O)C1(CC2CC(c3ccccc3)=NO2)CCN(C(=O)C2CCCC2)CC1 (centres undefined),-11.4,–,"20600 nM [rising, single point]"
CCc1ccccc1NC(=O)C/C(C)=N/NC(=O)COc1ccccc1C,-14.1,–,–
Cc1nc([N+](=O)[O-])c(Sc2nc3ccc([N+](=O)[O-])cc3[nH]2)n1Cc1ccccc1,-4.37,–,"1300 nM [rising, partial curve]"
Cc1onc(-c2c(F)cccc2Cl)c1C(=O)c1ccc(F)cc1,24.8,–,"29100 nM [rising, single point]"
Cc1ccc(N2C(=O)CC(NCc3ccc4c(c3)OCO4)C2=O)cc1Cl (centres undefined),-4.01,–,"146 nM [falling, full curve, poor fit]"
Cc1c(C(=O)N/N=C/c2ccc(O)cc2)sc(=S)n1C,105,"130 nM [falling, full curve, poor fit]","9200 nM [rising, partial curve, poor fit]"
c1c(CC2CCCC2)nnn1C[C@H]1CC[C@@H]([C@@H]2CC[C@H](Cn3cc(CC4CCCC4)nn3)O2)O1,14.7,–,–
CCN(CC)CCNC(=O)C(C(=O)c1ccccc1)n1ccccc1=O (centres undefined),-41.6,"32600 nM [falling, partial curve, poor fit]","29100 nM [falling, partial curve, poor fit]"
Cn1c(SCC(=O)c2ccc(O)cc2O)nnc1-c1ccccc1,19.3,–,–
Cc1cc(NC(=O)CCCn2nc([N+](=O)[O-])cc2C)no1,22.1,"3660 nM [rising, single point]",–
Nc1ccc(N(CCO)CCO)cc1,5.9,"130 nM [rising, full curve, poor fit]",–
O=C(c1ccccc1NS(=O)(=O)c1cccc(C(F)(F)F)c1)N1CCc2ccccc21,70.4,"20600 nM [rising, partial curve]",–
COCCN(C(=S)Nc1ccccc1C)C(C)c1cccs1 (centres undefined),14.9,–,"14600 nM [rising, partial curve]"

# Quoted from the listing.
# Under AC50 [2], COCCN(C(=S)Nc1ccccc1C)C(C)c1cccs1 (centres undefined) has the entry 14600 nM [rising, partial curve]
# Under AC50 [2], CCN(CC)CCNC(=O)C(C(=O)c1ccccc1)n1ccccc1=O (centres undefined) has the entry 29100 nM [falling, partial curve, poor fit]
# Under AC50 [2], C[C@@]12C(=O)Nc3ccc(Br)cc3C(=O)N1[C@H]1c3cc(Br)ccc3OC[C@@H]1[C@@H]2c1ccccc1 has the entry 326 nM [falling, full curve, poor fit]

# (continued)

SMILES,cell number change [%],AC50 [1],AC50 [2]
COc1ccc(C(=O)NN/C(=N/S(=O)(=O)c2ccc(C)cc2)c2ccccc2)cc1,19.3,–,"2060 nM [rising, full curve, poor fit]"
Cc1ccccc1OCC(=O)N/N=C/c1cn(C)c2ccccc12,-19.1,–,"164 nM [rising, full curve, poor fit]"
CC(=O)Nc1scc(-c2ccccc2)[n+]1-c1ccc(C)cc1,22.8,"5.17 nM [rising, full curve, poor fit]",–
O=C(N/N=C(/c1ccccc1)c1ccncc1)c1ccc2c(c1)OCO2,-36.2,"8200 nM [falling, partial curve, poor fit]","8200 nM [falling, partial curve, poor fit]"
COCCCNC(=O)c1ccc(CSCc2ccc(C)cc2)o1,-28.9,"1640 nM [falling, full curve, poor fit]",–
O=C(COc1ccc(Cl)cc1)N(Cc1ccccc1)c1ccccn1,-14.5,–,"18400 nM [falling, single point]"
COc1cc(/C=N/Nc2ccc(Cl)c(C(=O)O)c2)ccc1OC(=O)c1cccs1,-31.5,"231 nM [falling, full curve]",–
Cc1oc2cc(O)ccc2c(=O)c1Oc1ccc2ccccc2c1,-29.9,–,"14600 nM [falling, partial curve, poor fit]"
O=C(CCc1nc2ccccc2c(=O)[nH]1)Nc1ccc(F)c([N+](=O)[O-])c1,28.7,"6510 nM [rising, single point]","18400 nM [rising, single point]"
Cc1scc(-c2n[nH]c(=S)n2C(C)c2ccccc2)c1C (centres undefined),4.3,–,"2060 nM [rising, single point]"
Cc1cc(C)nc(/N=C(\N)Nc2ccc(OCc3ccccc3)cc2)n1,-57,"16400 nM [falling, single point]","16400 nM [falling, single point]"
O=c1c2c(n3cnnc3n1-c1ccccc1)-c1ccccc1CC21CCCC1,-17.9,"184 nM [falling, full curve, poor fit]","5.17 nM [falling, full curve, poor fit]"
O=C(CN1CCN(c2ccccc2O)CC1)Nc1cc([N+](=O)[O-])ccc1Cl,-9.87,–,"29100 nM [falling, partial curve, poor fit]"
O=C(Nc1ccccc1C(=O)Nc1ccncc1)c1ccccc1,-15.1,–,"411 nM [falling, single point]"
CS(=O)(=O)N(CC(=O)Nc1ccc(S(=O)(=O)N2CCCC2)cc1)c1ccccc1F,3.71,–,"29100 nM [falling, single point]"
O=C1CCC([N+](=O)[O-])C(c2ccc(Br)cc2)N1 (centres undefined),–,"517 nM [rising, single point]","2310 nM [falling, partial curve, poor fit]"
CCC(NS(=O)(=O)c1ccc(C)cc1)C(=O)N1CCOCCOCCOCC1 (centres undefined),13.2,–,–
CCN(CC)S(=O)(=O)c1ccc(NC(=O)C2CCCN(C(=O)c3ccc(Cl)cc3)C2)cc1 (centres undefined),-2.81,–,"10300 nM [rising, partial curve]"
